Experimental data as given in PubChem BioAssay AID2685 (National Center for Advancing Translational Sciences (NCATS), 2010).
The list shows a part of the results. These are further read-outs of the screen, such as a control signal, another cell line or another target. No call is given for them. The list favours compounds with an active or inconclusive main result. Potencies come from curve fits of mixed quality, noted in brackets.

Experiment: qHTS Assay for Lipid Storage Modulators in Drosophila S3 Cells;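 for cell number change: cells counted by Cell Tracker Red CMTPX staining in the red channel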
Settings: BODIPY lipid droplet fluorescence, 18-24 h; for cell number change: measured here: cell count max response, cells fed with added oleic acid
From the text: NIH Molecular Libraries Probe Production Centers Network [MLPCN] NIH Chemical Genomics Center [NCGC] MLPCN Grant: 1 R03 MH085686-01 Assay Submitter (PI): Beller, Mathias; Max-Planck-Institut fur Biophysikalische Chemie NCGC Assay Overview: Storing lipids as a reservoir for energy or the anabolism of elementary metabolites is a common feature of probably all cells and is conserved from bacteria to humans. The universal cellular lipid storage organelle is the so-called lipid storage droplet (LD). Although ubiquitous, LDs share a simple structure composed of a hydrophobic core that harbors the storage lipids, which is shielded by a droplet-specific phospholipid monolayer to which proteins are attached. The current model of LD biogenesis involves an incorporation of the lipid core into the membrane leaflets of the endoplasmic reticulum (ER) followed by a subsequent budding-like maturation of a LD, which ultimately pinches off. Once released, LD volume can increase by localized lipogenesis or fusion of existing droplet. Storage lipids are re-mobilized enzymatically by lipase activity. Lipase regulation in the adipocyte is heavily studied and involves multiple components including catecholamine signaling, the LD-associated proteins Perilipin and comparative gene identification (CGI-58) and at least two lipases named hormone sensitive lipase (HSL) and adipocyte triglyceride lipase (ATGL). LD regulation outside of the adipocyte is poorly understood and only few components are known. However, there is an urgent need to learn more about ectopic fat depots as mislocalized storage of lipids, for example in the liver or muscle, is an eminent health problem associated with insulin resistance or the metabolic syndrome. We developed a laser-scanning cytometer assay to enable 1,536-well screening and combined the results of the small molecules screen with an RNAi database based on lipid storage.
Triacsin C (Sigma-Aldrich T-4540), an inhibitor of long-chain fatty acyl CoA synthetase that blocks synthesis of triglycerides, was used as a positive control for lipid under-storage. A total of 23 nL of compound solution of different concentrations were transferred to the assay plates using a Kalypsys pin tool equipped with a 1,536-pin array containing 10-nL slotted pins (FP1S10, 0.457-mm diameter, 50.8 mm long; V&P Scientific). One microliter of oleic acid (400 uM) was added, and the plate was lidded with stainless steel rubber gasket lined lids containing pinholes. […] Fluorescence was detected by excitation of the fluorophores with a 488-nm laser on an Acumen Explorer (TTP Lab Tech). The total intensity in channel 2 (500-530 nm) reflected lipid droplet accumulation. Cells were detected using channel 3 (575-640 nm) with 5-um width and 100-um depth filters. The ratio of the number of objects in PMT channel 2 over the number of objects in PMT channel 3 was also calculated. Percent activity was computed relative to an internal control (100% inhibited lipid droplet deposition due to the presence of 20 uM Triacsin C), which was added to 32 wells/plate.

[1] = measured here: cell number channel AC50, cells fed with added oleic acid
[2] = measured here: lipid fluorescence (Fed channel) AC50, cells fed with added oleic acid

Structure (SMILES)	cell number change	AC50 [1]	AC50 [2]
Cc1c(CC(=O)O)c(=O)oc2c(C)c3occ(-c4ccc(Br)cc4)c3cc12	34.7%	25.9 µM [rising, single point]	4.11 µM [falling, partial curve]
CS(=O)(=O)C1=NSC2=NC(=O)/C(=C\c3ccc(OC(=O)c4ccco4)c(Br)c3)C(=N)N21	–	–	6.51 µM [falling, single point]
CC(C)(C)c1ccc2c(c1)OC(C(=O)N/N=C\c1ccc(-c3cccc(C(=O)O)c3)o1)CO2 (configuration not stated)	-27.1%	0.731 µM [falling, full curve]	0.82 µM [falling, full curve]
